# Test results taken from the supplement of paper PMC8728848.
# The other results are listed elsewhere or left out.
# Columns and labels:
# Assay in all cases: glycan array binding signal (z-score within array); higher = stronger binding
# Conditions in all cases: glycan notation: IUPAC condensed, linker removed
# [1] = target: Neu5Ac(a2-3)Gal(b1-4)GlcNAc(b1-6)GalNAc
# Summary of the method: (§1)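 From the Consortium for Functional Glycomics database, 3228 arrays were curated, keeping only those whose protein sequence was available. Binding is given as a within-array Z-score averaged across arrays sharing a protein sequence and across linkers. Negative Z-scores can be read as non-binding.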
# [2] = target: Neu5Ac(a2-3)Gal(b1-4)GlcNAc(b1-6)[Gal(b1-3)]GalNAc
# Summary of the method: as §1
# [3] = target: Neu5Ac(a2-3)Gal(b1-4)GlcNAc(b1-6)[Neu5Ac(a2-3)Gal(b1-3)]GalNAc
# Summary of the method: as §1
# [4] = target: Neu5Ac(a2-3)Gal(b1-4)GlcNAc6S
# Summary of the method: as §1
# [5] = target: Neu5Ac(a2-3)Gal(b1-4)[Fuc(a1-3)]GlcNAc
# Summary of the method: as §1
# [6] = target: Neu5Ac(a2-3)Gal(b1-4)[Fuc(a1-3)]GlcNAc(b1-2)Man
# Summary of the method: as §1
# [7] = target: Neu5Ac(a2-3)Gal(b1-4)[Fuc(a1-3)]GlcNAc(b1-3)Gal
# Summary of the method: as §1
# [8] = target: Neu5Ac(a2-3)Gal(b1-4)[Fuc(a1-3)]GlcNAc(b1-3)Gal(b1-4)GlcNAc
# Summary of the method: as §1
# [9] = target: Neu5Ac(a2-3)Gal(b1-4)[Fuc(a1-3)]GlcNAc(b1-3)Gal(b1-4)[Fuc(a1-3)]GlcNAc(b1-3)Gal(b1-4)[Fuc(a1-3)]GlcNAc
# Summary of the method: as §1
# [10] = target: Neu5Ac(a2-3)Gal(b1-4)[Fuc(a1-3)]GlcNAc(b1-3)GalNAc
# Summary of the method: as §1
# [11] = target: Neu5Ac(a2-3)Gal(b1-4)[Fuc(a1-3)]GlcNAc(b1-6)[Gal(b1-3)]GalNAc
# Summary of the method: as §1
# [12] = target: Neu5Ac(a2-3)Gal(b1-4)[Fuc(a1-3)]GlcNAc(b1-6)[Neu5Ac(a2-3)Gal(b1-3)]GalNAc
# Summary of the method: as §1
# [13] = target: Neu5Ac(a2-3)Gal(b1-4)[Fuc(a1-3)]GlcNAc6S
# Summary of the method: as §1
# [14] = target: Neu5Ac(a2-3)Gal6S(b1-4)GlcNAc
# Summary of the method: as §1
# [15] = target: Neu5Ac(a2-3)Gal6S(b1-4)[Fuc(a1-3)]GlcNAc
# Summary of the method: as §1
# [16] = target: Neu5Ac(a2-3)GalNAc
# Summary of the method: as §1
# [17] = target: Neu5Ac(a2-3)GalNAc(b1-4)GlcNAc
# Summary of the method: as §1
# [18] = target: Neu5Ac(a2-3)[GalNAc(b1-4)]Gal(b1-4)Glc
# Summary of the method: as §1
# [19] = target: Neu5Ac(a2-3)[GalNAc(b1-4)]Gal(b1-4)GlcNAc
# Summary of the method: as §1
# [20] = target: Neu5Ac(a2-3)[GalNAc(b1-4)]Gal(b1-4)GlcNAc(b1-3)GalNAc
# Summary of the method: as §1
# [21] = target: Neu5Ac(a2-3)[Neu5Ac(a2-6)]GalNAc
# Summary of the method: as §1
# [22] = target: Neu5Ac(a2-6)Gal
# Summary of the method: as §1
binder,measurement,setting,value
Mermaid1 (Stilbonema majum) (protein) MGSSHHHHHHSSGLVPRGSHMAASGWLRSPQGTVVKLYRRSLSWSKADEFCKDVDGRLVVDRTADMHLFLIKNVLKEKKSRVWVGLRRTAPHSRTWIWSDGTRQNEDDLDANLWLRDEPNDAAGEEECALFMYSPWEKAWGLNDYLCRGGCRSYQFICEKWIR,glycan array binding signal (z-score),[1],-0.457
same,glycan array binding signal (z-score),[2],5.42
same,glycan array binding signal (z-score),[3],-0.446
same,glycan array binding signal (z-score),[4],-0.072
same,glycan array binding signal (z-score),[5],-0.659
same,glycan array binding signal (z-score),[6],-0.971
same,glycan array binding signal (z-score),[7],-0.744
same,glycan array binding signal (z-score),[8],-0.359
same,glycan array binding signal (z-score),[9],-0.316
same,glycan array binding signal (z-score),[10],-0.05
same,glycan array binding signal (z-score),[11],0.711
same,glycan array binding signal (z-score),[12],-0.696
same,glycan array binding signal (z-score),[13],-0.228
same,glycan array binding signal (z-score),[14],-0.689
same,glycan array binding signal (z-score),[15],-0.314
same,glycan array binding signal (z-score),[16],-0.535
same,glycan array binding signal (z-score),[17],-0.428
same,glycan array binding signal (z-score),[18],-0.569
same,glycan array binding signal (z-score),[19],-0.469
same,glycan array binding signal (z-score),[20],-0.311
same,glycan array binding signal (z-score),[21],1.38
same,glycan array binding signal (z-score),[22],-0.319

# Part of the list above, bar-delimited.
binder | measurement | setting | value
Mermaid1 (Stilbonema majum) (protein) MGSSHHHHHHSSGLVPRGSHMAASGWLRSPQGTVVKLYRRSLSWSKADEFCKDVDGRLVVDRTADMHLFLIKNVLKEKKSRVWVGLRRTAPHSRTWIWSDGTRQNEDDLDANLWLRDEPNDAAGEEECALFMYSPWEKAWGLNDYLCRGGCRSYQFICEKWIR | glycan array binding signal (z-score) | [18] | -0.569
same | glycan array binding signal (z-score) | [19] | -0.469
